Source: patent publication US20210040181A1 (Bristol-Myers Squibb, published 2021)
Results are given in words; binding and its absence hold for the method and conditions named. Some results given as binding are weak or reduced against the parent protein; the word gives no strength.

Biological target: EGFR-Fc (R&D Systems), ectodomain of human EGFR as a Fc fusion (human) (UniProt P00533)
Test: direct binding ELISA, single point

Binder | binding
679F03 (designed binder, 10Fn3-based clone expressed in E. coli as His6 tagged protein; not shown: His6 tag) VSDVPRDLEVVAATPTSLLISWYHYYSGSQRYYRITYGETGGNSPVQEFTVPHEVYTATISGLKPGVDYTITVYAVTDYAYKEYEEYPISINYRT | binds
679B01 (designed binder, 10Fn3-based clone expressed in E. coli as His6 tagged protein; not shown: His6 tag) VSDVPRDLEVVAATPTSLLISWLLLGAPCRYYRITYGETGGNSPVQEFTVPWMGLTATISGLKPGVDYTITVYAVTSERAPCVKVWRCPISINYRT | binds

Results, then the binder that gave them:

binding | Binder
binds | 679F09 (designed binder, 10Fn3-based clone expressed in E. coli as His6 tagged protein; also called clone 679F09; not shown: His6 tag) VSDVPRDLEVVAATPTSLLISWQVPRPMYQRYYRITYGETGGNSPVQEFTVPGGVRTATISGLKPGVDYTITVYAVTDYMHSEYRQYPISINYRT
binds | 867B04 (designed binder, not shown: small tags and cut ends) VSDVPRDLEVVAATPTSLLISWYSRYQSYRYYRITYGETGGNSPVQEFTVPHASNTATISGLKPGVDYTITVYAVTVDYTAVQVSYPISINYRT
binds | 867B05 (designed binder, not shown: small tags and cut ends) VSDVPRDLEVVAATPTSLLISWYSRYQSYRYYRITYGETGGNSPVQEFTVPHASNTATISGLKPGVDYTITVYAVTVDYTAVQVSYPISINYRT
